Source: patent US20120121576A1
These are yes or no findings as the source states them, for the method shown. Some binding calls cover weakened binding; strength is not graded here.

Chains of the proteins cited; added tags and fusions are not shown. Lines headed by an entry give the natural chain unless they say otherwise; changes in a name come on top.
UniProt P27037: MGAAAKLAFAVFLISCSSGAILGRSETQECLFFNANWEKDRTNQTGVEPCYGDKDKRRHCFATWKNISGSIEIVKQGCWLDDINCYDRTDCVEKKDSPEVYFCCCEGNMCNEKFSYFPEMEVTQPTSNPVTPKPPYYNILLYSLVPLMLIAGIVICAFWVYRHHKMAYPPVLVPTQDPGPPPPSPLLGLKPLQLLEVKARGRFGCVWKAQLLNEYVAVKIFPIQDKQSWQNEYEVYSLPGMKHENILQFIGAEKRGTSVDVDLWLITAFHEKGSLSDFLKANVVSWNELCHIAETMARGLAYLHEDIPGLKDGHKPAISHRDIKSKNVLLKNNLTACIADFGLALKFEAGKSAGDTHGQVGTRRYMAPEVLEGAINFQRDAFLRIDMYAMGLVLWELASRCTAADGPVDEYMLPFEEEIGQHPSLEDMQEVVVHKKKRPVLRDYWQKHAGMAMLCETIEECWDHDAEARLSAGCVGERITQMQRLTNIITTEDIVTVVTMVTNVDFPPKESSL

Molecular target: ActRIIA-Fc (ActRIIA-mFc, dimeric protein) (human) (UniProt P27037)
Assay: summary sentence after the examples; form of ActRIIA not named there

B1: Ab-14E1 (antibody 14E1; hybridoma subclone 14E1.H8.H1) (antibody, V domains shown)
VH: DVQLQESGPGLVKPSQSLSLTCSVTGYSITSGYYWNWIRQFPGNKLEWMGYISYDGSNNYNPSLINRISITRDTSKNQFFLKLNSVTTEDTATYFCASYAYRNDVRFAYWGQGTLVTVSA
VL: DIQMTQTTSSLSASLGDRVTISCRASQDISNFLNWYQQKPDGTVKLLIYFTSRLHSGVPSRFSGSGSGTDYSLTITNLEQEDIATYFCQQGNTLPWTFGGGTKLEIK
  binding: binds
